Assay results reported in patent US9226918B2, “Methods and compositions for treating or preventing narcotic withdrawal symptoms” (The Board of Trustees of the Leland Stanford Junior …, priority 2008, dated 2016).
Like-named read-outs stand apart in the source and are kept apart here.

Legend:
Htr3a mRNA = conditions: C57BL/6J mice after chronic morphine treatment, relative to saline (FIG. 6B)

CN1CC[C@]23c4c5ccc(O)c4O[C@H]2[C@@H](O)C=C[C@H]3[C@H]1C5 [morphine]
reduction of Htr3a mRNA expression in brainstem nuclei (amygdala, dorsal raphe, periaqueductal gray) (Htr3a mRNA): 2 to 5 fold
5-HT3 content of brainstem protein preparations (5-HT3 protein; 129/SvlmJ mice after morphine treatment): no such changes were observed
5-HT3 content of brainstem protein preparations (5-HT3 protein; C57BL/6J mice after morphine treatment): statistically significant decreases
